US4112097A, “Antihypertensive agents” (Abbott Laboratories, priority 1977, dated 1978)
Where a name gives a salt, the structure may show the parent alone. Read-outs that look alike come from different tables or passages of the source. At least one compound was matched to its structure with a doubt left.

Tested on: spontaneously hypertensive (SH) rats
Test: Antihypertensive effect (blood pressure and heart rate) in spontaneously hypertensive rats
Assay type: in vivo, rat
Description: The screening is conducted as follows:
Male spontaneously hypertensive (SH) rats are trained to be restrained in a wire mesh cylinder in a warming box, at least two training cycles being conducted before testing. The rats are warmed for about 1/2 hour period to blood pressure measurement, the warming box being maintained at a constant temperature of 36° C.
An occluding cuff attached to the programed sphymomanometer is placed near the base of the tail of each rat and the pressure in the cuff is increased automatically from 0 to 250 milimeters of mercury (mm Hg) at a rate of 10 mm Hg per second. The total time for each cycle of inflation and deflation of the cuff is 50 seconds and the interval between cycles is one minute.
A photocell is placed distal to the cuff to record the pulses due to forward motion of blood flow with each heart beat. As the pressure in the cuff increases, the pulse disappears completely at a point where cuff pressure equals or exceeds the arterial blood pressure and it reappears during deflation at approximately the same pressure. Five interference free signals for deflation are recorded for each rat. Rats with a blood pressure of 180 mm Hg or more during the control period are used in the study. Blood pressure and heart rate readings are recorded on a model VII Grass polygraph at intervals of 1, 3, 5 and 24 hours after administration of the drug.

Row | SMILES | antihypertensive effect in words | heart rate in words | antihypertensive effect in words (Hydrochloride)
1 | COc1cc2nc(N3CCN(C(=O)C4CCCCO4)CC3)nc(N)c2cc1OC (stereo not shown) [Formula III, 2-[4(tetrahydropyran-2-carbonyl)piperazinyl]-4-amino-6,7-dimethoxyquinazoline] | potent antihypertensive agents which lower the blood pressure of spontaneously hypertensive rats | without causing any significant changes in heart rate | 
2 | COc1cc2nc(N3CCN(C(=O)C4CCCO4)CC3)nc(N)c2cc1OC (stereo not shown) [2[4-(Tetrahydro-2-Furoyl)Piperazinyl]-4-Amino-6,7-Dimethoxyquinazoline Hydrochloride] |  |  | potent antihypertensive agents
3 | COc1cc2nc(N3CCN(C(=O)C4CCCCO4)CC3)nc(N)c2cc1OC (stereo not shown) [2-[4(Tetrahydropyran-2-Carbonyl)Piperazinyl]-4-Amino-6,7-Dimethoxyquinazoline Hydrochloride] |  |  | potent antihypertensive agents
